Reference: paper PMC3816220
No constants are given. Whether binding was seen depends on the method and setting. In cells and extracts the contact can be indirect. Some entries that bind do so weakly or less than the wild type. For some assays here: Tags and fused reporters may be left off the sequences shown. Values belong to the molecule of their own block, whether it stands above or below them.

Sequences of proteins named here, by UniProt entry; tags and fusion partners are left off.
UniProt P31751: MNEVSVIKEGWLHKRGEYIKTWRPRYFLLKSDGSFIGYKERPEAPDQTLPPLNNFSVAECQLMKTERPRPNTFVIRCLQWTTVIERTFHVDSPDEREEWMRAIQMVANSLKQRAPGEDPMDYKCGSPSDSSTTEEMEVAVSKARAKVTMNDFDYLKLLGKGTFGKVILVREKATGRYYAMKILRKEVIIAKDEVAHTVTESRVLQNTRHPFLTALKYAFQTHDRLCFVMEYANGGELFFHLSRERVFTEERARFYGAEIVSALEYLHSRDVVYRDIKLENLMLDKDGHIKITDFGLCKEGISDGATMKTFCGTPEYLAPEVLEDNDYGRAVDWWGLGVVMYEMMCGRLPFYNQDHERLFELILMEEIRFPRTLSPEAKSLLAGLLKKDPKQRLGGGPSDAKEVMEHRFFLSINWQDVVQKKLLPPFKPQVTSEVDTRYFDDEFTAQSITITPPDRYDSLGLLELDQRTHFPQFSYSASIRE

Key:
[1] = target: T1, Flag-tagged TCL1b (human) (UniProt O95988); assay: co-IP; 293T cells co-transfected with pUC-CAGGS-Flag-TCL1b and pCMV6-HA-Akt2, lysed 72 h later in Brij 97 lysis buffer; immunoprecipitated with anti-HA or anti-Flag, anti-mouse IgG as control; blotted with anti-HA-HRP or anti-Flag-HRP
T1 sequence: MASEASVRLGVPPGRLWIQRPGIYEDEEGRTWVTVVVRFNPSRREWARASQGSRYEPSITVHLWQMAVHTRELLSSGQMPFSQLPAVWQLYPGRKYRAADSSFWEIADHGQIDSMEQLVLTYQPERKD

[2] = target: TCL1b (construct of the dimer co-immunoprecipitation not told) (human) (UniProt O95988); assay: co-IP; told only in the discussion, no figure and no details (data not shown)

binding [1]: binds
Molecule: HA-tagged Akt2 (from UniProt P31751 1-481) (enzyme)

binding [2]: binds
B1: TCL1b (construct of the dimer co-immunoprecipitation not told) (protein, UniProt O95988 1-128)
chain: T1 sequence
